Consider 13 substances from US5776900A (SmithKline Beecham Corporation, priority 1995, dated 1998).

For some assays here: One purity is given for all peptides; the source may state it once.

One data set is described as follows: peptide synthesis. Particulars: coupling step.
BOC Asp-(β-OBz)Sub Lys-(ε-Z)-COOBz gave a step yield of 73%.
For “BOC-Glu-(γ-OBz) Asp-(β-OBz) Sub-Lys-(ε-Z)COOBz”, the step yield came out at 68%.
In the case of “pGlu-(γ-OBz) Glu-(β-OBz) Asp-Sub-(ε-Z) Lys-COOBz”, the step yield is given as 69%.

The next data set in a line: general procedure: Boc solid-phase peptide synthesis; Boc-Lys(Cl-Z)-PAM resin; BHA, MBHA, chloromethyl, hydroxymethyl resins; DCC/HOBt. The note with it: whole synthesis, HPLC, scale of the general procedure 0.5 g resin (0.63 mmol/g).
Consider ((d)-pGlu-Glu-Asp)2 -Sub-(Lys)2, for which the “final HPLC purity” value is above 95%.
Regarding (Pic-Glu-Asp)2 -Sub-(Lys)2, the “final HPLC purity” value is reported as above 95%.
In the case of (Pic-Ser-Asp)2 -Adp-(Lys)2, the “final HPLC purity” value is recorded as above 95%.
As for (Pic-Ser-Asp)2 -Adp-(Lys-CONH2)2, the “final HPLC purity” value is above 95%.
Still for that read-out and setting: as for (pGlu-(d)-Glu-Asp)2 -Sub-(Lys)2, the figure is above 95%; as for (pGlu-Asp-Asp)2 -Sub-(Lys)2, above 95%.
The same measure, in the same setting: as for (pGlu-Glu-Asp)2 -Adp-(Tyr-Lys)2, the figure is above 95%; as for (pGlu-Glu-Glu)2 -Sub-(Lys)2, above 95%; as for (pGlu-Glu-Lys)2 -Sub-(Asp)2, above 95%.
On the same count and under the same terms, as for (pGlu-Ser-Asp)2 -Sub-(Lys)2, the figure is above 95%.

Still in this data set, the particulars now being: whole synthesis, scale of the general procedure 0.5 g resin (0.63 mmol/g).
For (pGlu-Glu-Asp)2 -Adp-(Tyr-Lys)2, the difficulty met entry was “After 72 hours (the reaction was still not complete)”.
